Source: patent US7465585
Where a chain is given by its changes, count along the chain named. Names and notes keep the numbering of the source. Results are given in words; binding and its absence hold for the method and conditions named. Some entries that bind do so weakly or less than the wild type. Tags and fused reporters may be left off the sequences shown.

T1: N1-AP fusion protein (CRD-N of hDkk1 fused with alkaline phosphatase) (human) (UniProt O94907)
T1 sequence: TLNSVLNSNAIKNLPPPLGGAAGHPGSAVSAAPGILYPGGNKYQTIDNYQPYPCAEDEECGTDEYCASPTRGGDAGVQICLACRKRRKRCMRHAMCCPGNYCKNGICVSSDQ

T2: individual CRD-C domain of hDkk1 with point mutation D194A, IgG-fused (human) (UniProt O94907)
T2 sequence: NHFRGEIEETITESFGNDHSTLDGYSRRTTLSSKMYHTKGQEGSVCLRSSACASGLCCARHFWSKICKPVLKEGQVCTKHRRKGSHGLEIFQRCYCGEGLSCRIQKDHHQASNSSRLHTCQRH

T3: extracellular domain of Kremen1, IgG-fused (Xenopus) (UniProt Q90Y90)
T3 sequence: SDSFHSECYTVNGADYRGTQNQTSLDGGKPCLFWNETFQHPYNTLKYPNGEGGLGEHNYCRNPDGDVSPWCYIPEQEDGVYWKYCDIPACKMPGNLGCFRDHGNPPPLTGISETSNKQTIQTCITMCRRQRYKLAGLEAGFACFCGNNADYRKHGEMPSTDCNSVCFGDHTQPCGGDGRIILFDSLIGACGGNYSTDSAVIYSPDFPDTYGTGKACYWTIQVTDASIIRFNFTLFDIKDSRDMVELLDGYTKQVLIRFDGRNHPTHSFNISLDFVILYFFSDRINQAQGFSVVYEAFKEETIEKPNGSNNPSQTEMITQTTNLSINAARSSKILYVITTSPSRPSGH

B1: C1 fused to the constant region of human IgG1 (C1-IgG) (Fc fusion, not shown: a dimerising Fc or GST)
chain: T2 sequence with A51D
B2: individual CRD-N domain of hDkk1 with point mutation H124D, AP-tagged (protein, not shown: large carriers)
chain: T1 sequence with H93D
B3: hDkk1-H124D, AP-tagged (protein, not shown: large carriers)
chain: TLNSVLNSNAIKNLPPPLGGAAGHPGSAVSAAPGILYPGGNKYQTIDNYQPYPCAEDEECGTDEYCASPTRGGDAGVQICLACRKRRKRCMRDAMCCPGNYCKNGICVSSDQNHFRGEIEETITESFGNDHSTLDGYSRRTTLSSKMYHTKGQEGSVCLRSSDCASGLCCARHFWSKICKPVLKEGQVCTKHRRKGSHGLEIFQRCYCGEGLSCRIQKDHHQASNSSRLHTCQRH
B4: hDkk1-D194A, AP-tagged (protein, not shown: large carriers)
chain: B3 chain with D93H, D163A
B5: hDkk1-H124D/D194A double mutant, AP-tagged (protein, not shown: large carriers)
chain: B3 chain with D163A

Columns and labels:
[1] = biological target: T1, N1-AP fusion protein (CRD-N of hDkk1 fused with alkaline phosphatase) (human); test: direct binding in vitro (resin-binding assay)
[2] = biological target: T1, N1-AP fusion protein (CRD-N of hDkk1 fused with alkaline phosphatase) (human); test: enzyme-linked resin-binding assay, IgG fusion on GammaBind Plus sepharose, AP activity at 405 nm
[3] = biological target: T2, individual CRD-C domain of hDkk1 with point mutation D194A, IgG-fused (human); test: AP-tagged CRD-N and IgG-fused CRD-C, bead binding (FIG. 7 legend)
[4] = biological target: T2, individual CRD-C domain of hDkk1 with point mutation D194A, IgG-fused (human); test: AP-tagged Dkk1 mutant domain and IgG-fused CRD-C, bead binding, AP activity
[5] = biological target: T3, extracellular domain of Kremen1, IgG-fused (Xenopus); test: AP-tagged Dkk1 mutant and IgG-fused receptor, bead binding, AP activity
[6] = biological target: T3, extracellular domain of Kremen1, IgG-fused (Xenopus); test: AP-tagged Dkk1 mutant and IgG-fused receptor, bead binding (FIG. 7 legend)

| Binder | binding [5] | binding [6] | further results |
| --- | --- | --- | --- |
| B1 | – | – | binding [1]: binds; binding [2]: binds |
| B2 | – | – | binding [3]: binds; binding [4]: binds |
| B3 | binds | binds | – |
| B4 | binds | binds | – |
| B5 | binds | binds | – |
